Taken from: PubChem BioAssay AID652243 (Drosophila RNAi Screening Center, 2013)

- Test: 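Fly regulators of androgen-dependent reporter output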 (primary screen)
- Cells: Drosophila S2R+ cells
- Reagent: long dsRNA against Drosophila genes
- Duration: 72 h (48 h, then 24 h hormone)
- Conditions: synthetic androgen R1881 at 10 nM for 24 h
- Detection: 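Per-well raw luminescence of the androgen-driven firefly reporter and of the Renilla control, two replicates each, without normalisation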
- Direction: firefly reporter light: higher = more light from androgen-responsive reporter; Renilla control light: higher = more constitutive control signal (cell number, transfection)
- Hit rule: 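Across duplicate plates, a knock-down whose log firefly/Renilla ratio shifted a set fold down or up from the GFP/LacZ control mean was a hit; the downward cut appears as both 1.5 and 3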
- Meaning of the calls: active = hit: reporter lowered or raised; inactive = no hit
The deposit covers about 24,000 reagents; this is a random part of those that have a named target and a result. Over the whole deposit, 246 (1%) were called active. 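Plates not normalised; calls are printed but the firefly/Renilla ratio behind them is not deposited; fold cut for lowering reported inconsistently.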 Raw values vary from plate to plate and are shown uncorrected. Not stated in the record: the amount of reagent.

Against CG33284 (GeneID 2768989) [DRSC22905], the values are firefly reporter light, replicate 1 = 3.28e5; firefly reporter light, replicate 2 = 8.30e5; Renilla control light, replicate 1 = 6.01e5; Renilla control light, replicate 2 = 9.45e5; inactive. For CG33284 (GeneID 2768989) [DRSC29777] the deposit lists firefly reporter light, replicate 1 = 4.37e5; firefly reporter light, replicate 2 = 4.26e5; Renilla control light, replicate 1 = 9.99e5; Renilla control light, replicate 2 = 1.19e6; inactive. For CG4496 (GeneID 34000) [DRSC02753], the values are firefly reporter light, replicate 1 = 1.42e5; firefly reporter light, replicate 2 = 1.22e5; Renilla control light, replicate 1 = 9.41e5; Renilla control light, replicate 2 = 8.58e5; inactive. CG15011 (GeneID 38518) [DRSC08464] gave firefly reporter light, replicate 1 = 9.25e5; firefly reporter light, replicate 2 = 8.96e5; Renilla control light, replicate 1 = 1.34e6; Renilla control light, replicate 2 = 1.43e6; inactive. With knock-down of kermit (GeneID 46027) [DRSC06074], the record shows firefly reporter light, replicate 1 = 1.06e6; firefly reporter light, replicate 2 = 1.05e6; Renilla control light, replicate 1 = 1.39e6; Renilla control light, replicate 2 = 1.38e6; inactive. After knock-down of kermit (GeneID 46027) [DRSC25874], the screen gave firefly reporter light, replicate 1 = 3.99e5; firefly reporter light, replicate 2 = 3.25e5; Renilla control light, replicate 1 = 7.45e5; Renilla control light, replicate 2 = 6.24e5; inactive.

CG17129 (GeneID 38080) [DRSC08508] showed firefly reporter light, replicate 1 = 5.36e5; firefly reporter light, replicate 2 = 7.97e5; Renilla control light, replicate 1 = 8.75e5; Renilla control light, replicate 2 = 9.30e5; inactive. Knock-down of CG9986 (GeneID 43386) [DRSC16586] gave: firefly reporter light, replicate 1 = 98357; firefly reporter light, replicate 2 = 88879; Renilla control light, replicate 1 = 8.58e5; Renilla control light, replicate 2 = 7.29e5; inactive. With knock-down of CG9986 (GeneID 43386) [DRSC29323], the record shows firefly reporter light, replicate 1 = 7.93e5; firefly reporter light, replicate 2 = 9.18e5; Renilla control light, replicate 1 = 1.27e6; Renilla control light, replicate 2 = 1.27e6; inactive. CG9389 (GeneID 40347) [DRSC11857] gave firefly reporter light, replicate 1 = 64738; firefly reporter light, replicate 2 = 36543; Renilla control light, replicate 1 = 2.72e5; Renilla control light, replicate 2 = 3.00e5; inactive. After knock-down of CG9389 (GeneID 40347) [DRSC39279] the results were inactive. Depletion of CG9389 (GeneID 40347) [DRSC39318] came out at: inactive.

CG14106 (GeneID 39506) [DRSC10109] scored firefly reporter light, replicate 1 = 1.72e5; firefly reporter light, replicate 2 = 1.34e5; Renilla control light, replicate 1 = 2.41e6; Renilla control light, replicate 2 = 2.03e6; inactive. Depletion of mRpL40 (GeneID 41364) [DRSC15749] came out at: firefly reporter light, replicate 1 = 2.08e5; firefly reporter light, replicate 2 = 1.92e5; Renilla control light, replicate 1 = 2.60e6; Renilla control light, replicate 2 = 3.17e6; active. With knock-down of mRpL40 (GeneID 41364) [DRSC27264], the record shows firefly reporter light, replicate 1 = 2.82e5; firefly reporter light, replicate 2 = 2.51e5; Renilla control light, replicate 1 = 6.86e5; Renilla control light, replicate 2 = 7.54e5; inactive. Dph3 (GeneID 41352) [DRSC14923] showed firefly reporter light, replicate 1 = 1.30e5; firefly reporter light, replicate 2 = 1.49e5; Renilla control light, replicate 1 = 1.62e6; Renilla control light, replicate 2 = 1.72e6; inactive. For Dph3 (GeneID 41352) [DRSC25545], the entry reads firefly reporter light, replicate 1 = 9.27e5; firefly reporter light, replicate 2 = 1.20e6; Renilla control light, replicate 1 = 7.44e5; Renilla control light, replicate 2 = 9.51e5; inactive. After knock-down of CanB2 (GeneID 46456) [DRSC07355], the record shows firefly reporter light, replicate 1 = 3.48e5; firefly reporter light, replicate 2 = 4.35e5; Renilla control light, replicate 1 = 2.42e6; Renilla control light, replicate 2 = 4.36e6; inactive.

For CanB2 (GeneID 46456) [DRSC27440], the entry reads firefly reporter light, replicate 1 = 2.46e5; firefly reporter light, replicate 2 = 2.50e5; Renilla control light, replicate 1 = 7.26e5; Renilla control light, replicate 2 = 9.34e5; inactive. Gbs-76A (GeneID 40102) [DRSC11081] showed firefly reporter light, replicate 1 = 94975; firefly reporter light, replicate 2 = 23672; Renilla control light, replicate 1 = 4.23e5; Renilla control light, replicate 2 = 3.94e5; active. Gbs-76A (GeneID 40102) [DRSC36906] gave inactive. Depletion of Gbs-76A (GeneID 40102) [DRSC36907] came out at: inactive.

Called active, among the entries above:
mRpL40 (GeneID 41364) [DRSC15749] | firefly reporter light, replicate 1 = 2.08e5; firefly reporter light, replicate 2 = 1.92e5; Renilla control light, replicate 1 = 2.60e6; Renilla control light, replicate 2 = 3.17e6; outcome = active
Gbs-76A (GeneID 40102) [DRSC11081] | firefly reporter light, replicate 1 = 94975; firefly reporter light, replicate 2 = 23672; Renilla control light, replicate 1 = 4.23e5; Renilla control light, replicate 2 = 3.94e5; outcome = active
